Test results as given in PubChem BioAssay AID652054 (National Center for Advancing Translational Sciences (NCATS), 2013).
The whole screen tested about 360,000 compounds, of which about 9,100 (2.5%) were called active. The shares of active, inactive and inconclusive entries below differ from those in the screen. No stated cut-off is given here; in the data, active means max response below about -50%; inconclusive means no clear call, values can overlap the other calls; inactive means above that.
On the % scale 0 is the no-effect control and ±100 the full control effect.

By UniProt entry, the sequences of proteins in these tests, tags left out.
UniProt P35462, whole entry, looked up: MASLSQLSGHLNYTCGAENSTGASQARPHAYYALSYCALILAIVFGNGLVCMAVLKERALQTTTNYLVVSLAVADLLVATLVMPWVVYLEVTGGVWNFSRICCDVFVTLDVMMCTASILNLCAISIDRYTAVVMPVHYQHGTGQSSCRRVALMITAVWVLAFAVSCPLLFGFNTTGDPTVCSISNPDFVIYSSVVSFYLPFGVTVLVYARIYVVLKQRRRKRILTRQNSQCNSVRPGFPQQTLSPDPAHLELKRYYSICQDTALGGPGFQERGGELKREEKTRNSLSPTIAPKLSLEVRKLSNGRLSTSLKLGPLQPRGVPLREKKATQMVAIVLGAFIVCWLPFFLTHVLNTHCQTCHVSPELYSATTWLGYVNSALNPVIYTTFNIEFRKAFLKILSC

Each compound was assayed against D(3) dopamine receptor (Homo sapiens) (UniProt P35462) (assay: qHTS of D3 Dopamine Receptor Antagonist: qHTS). Conditions: D3R cells, DiscoveRx beta-arrestin luminescence, antagonist mode; stronger effect = lower value.
Summary of the method: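 Cells expressing the human receptor were seeded at 1500 cells/well, incubated overnight at 37 degrees C in 5% CO2, then exposed to library compounds with dopamine controls for 90 minutes at 37 degrees C before luminescent detection.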
`O=S1(=O)N[C@@H](Cc2ccccc2)COc2cc(N3CCC[C@@H]3CO)ccc21` was tested, and the max response, negative = inhibition was inconclusive: -33.6%. For `COc1ccc(NC(=O)CSc2ccc([N+](=O)[O-])cc2)cc1S(=O)(=O)N1CCOCC1`, the max response, negative = inhibition was inconclusive: -31.7%. `O=C(N/N=C/c1cccc([N+](=O)[O-])c1)c1ccc2nc[nH]c2c1` was tested, and the max response, negative = inhibition was inconclusive: -41.4%. In the case of `CCOC(=O)C1CCN(Cc2ccc(OC)c(OCc3ccccc3)c2)CC1`, the max response, negative = inhibition is reported as active: -64.6%. For `Cc1cc(C)c2c(n1)SCC(=O)N2CC(=O)NCCC1=CCCCC1`, the max response, negative = inhibition was inconclusive: -30.6%. In the case of `NC(=O)c1cc2c3ccccc3ccn2c1-c1ccccc1`, the max response, negative = inhibition is reported as inconclusive: -36.9%. For `COCCC(=O)N1CCC(Oc2ccc(C(=O)N(C)CCCC3CCCC3)cc2)CC1`, the max response, negative = inhibition was inconclusive: -33.4%. In the case of `O=S1(=O)CCC(N=Cc2cc(Br)ccc2O)C1` (stereo not given), the max response, negative = inhibition is reported as inconclusive: -42.6%. For `COc1ccc2c(C)c(C(=O)N3CCN(Cc4ccccc4)CC3)oc2c1`, the max response, negative = inhibition was inconclusive: -45.1%. `COCCn1c(=S)[nH]c2cc(C(=O)NCC3CCCO3)ccc2c1=O` (stereo not given) was tested, and the max response, negative = inhibition was inconclusive: -30.8%. With `NNc1nc(N)c2c(n1)-c1ccccc1CC21CCCC1` the max response, negative = inhibition was active: -51.8%. For `C1=CCC(CN2CCN(C3CCCCCC3)CC2)CC1` (stereo not given), the max response, negative = inhibition was inconclusive: -41.3%. With `O=C(COC(=O)Cn1cnc2ccccc2c1=O)NNC(=O)c1ccc(Br)cc1` the max response, negative = inhibition was inconclusive: -45.6%. `Cc1cc(CSc2ccccc2)ccc1NC(=O)c1ccc(Cl)c([N+](=O)[O-])c1` was tested, and the max response, negative = inhibition was inactive: -6.08%. With `CCOc1ccc(C(CCc2ccccc2)NC(=O)c2ccccc2F)cc1OCC` (stereo not given) the max response, negative = inhibition was inconclusive: -34.8%. With `O=C(CCNS(=O)(=O)c1ccc(Br)cc1)NC1CCN(Cc2ccccc2)CC1` the max response, negative = inhibition was inconclusive: -34.5%. `CCSc1nnc(NC(=O)[C@@H](NC(=O)c2ccccc2)C(C)C)s1` was tested, and the max response, negative = inhibition was inactive: 4.22%. In the case of `NS(=O)(=O)Cc1noc2ccccc12`, the max response, negative = inhibition is reported as inconclusive: -35.2%. `CCCOc1ccc(C(=O)NNC(=S)NC(=O)CC)cc1` was tested, and the max response, negative = inhibition was inconclusive: -43%. With `COc1ccc(CCN2CCC(CN3C(=S)NC[C@@H]3CC(C)C)CC2)cc1OC` the max response, negative = inhibition was inconclusive: -45.9%. In the case of `CC(=O)c1ccc(Nc2ccc(-c3ccccc3C)nn2)cc1`, the max response, negative = inhibition is reported as inactive: -6.06%. In the case of `O=C1c2cccc3cc(Br)cc(c23)C(=O)N1Nc1ccccc1`, the max response, negative = inhibition is reported as active: -62.9%. With `CCO[C@H]1OC(C(=O)NCc2nc3ccccc3[nH]2)=C[C@@H](C2CC2)[C@@H]1CCCO` the max response, negative = inhibition was inconclusive: -40.1%. `O=C(COc1ccccc1)Nc1c2c(nn1-c1ccc(F)cc1)CS(=O)C2` (stereo not given) was tested, and the max response, negative = inhibition was inconclusive: -32.7%. With `O=C(O)c1ccc2c(c1)C(=O)N(Cc1ccccc1)C2=O` the max response, negative = inhibition was active: -50.7%. For `CCOC(=O)c1cnc(-n2nc(C)cc2C)nc1NC(C)c1ccccc1` (stereo not given), the max response, negative = inhibition was active: -59%. With `COc1ccc([N+](=O)[O-])cc1NS(=O)(=O)c1cccc(C(=O)O)c1` the max response, negative = inhibition was inactive: -28.9%. In the case of `COc1ccc(/C=C(\C#N)C(=O)NCCc2ccccc2)cc1OCc1ccccc1`, the max response, negative = inhibition is reported as inactive: -5.13%. For `O=C(NNC(=O)c1ccccc1O)c1ccc(Cl)cc1`, the max response, negative = inhibition was inconclusive: -35.2%. With `CN(C)CCN(Cc1ccc(Cl)cc1)c1ccccn1` the max response, negative = inhibition was inconclusive: -46.3%. `CS(=O)(=O)c1ccc(N)cc1` was tested, and the max response, negative = inhibition was inactive: -20.9%. With `CCCCCCCCCOC(=O)C[n+]1csc(CCO)c1C` the max response, negative = inhibition was inconclusive: -30.8%. `Fc1cccc(CN2CCN(c3ncccn3)CC2)c1` was tested, and the max response, negative = inhibition was inconclusive: -38.3%. For `Cc1cc(=O)c(C(=O)O)cn1Nc1ccc(F)cc1`, the max response, negative = inhibition was inconclusive: -37.3%. With `CC(C)NC(=O)c1ccc(CN2CCc3ccccc3C2)cc1` the max response, negative = inhibition was active: -65.9%. For `Cc1ccsc1C1Nc2ccccc2-c2nc3ccccc3n21` (stereo not given), the max response, negative = inhibition was inactive: 1.54%. In the case of `CC[C@H](NC(=O)/C=C/[C@H]1O[C@@H](n2cc(C)c(=O)[nH]c2=O)C[C@@H]1O)c1ccccc1`, the max response, negative = inhibition is reported as inactive: 5.59%. `CSc1ccc(CN(C)C(=O)C2CCN(C(=O)Nc3ccccc3)CC2)cc1` was tested, and the max response, negative = inhibition was inactive: -15.3%. In the case of `COc1cccc(C2C(C(C)=O)=C(O)C(=O)N2CCc2c[nH]c3ccccc23)c1` (stereo not given), the max response, negative = inhibition is reported as inconclusive: -36.6%. For `O=C(Cn1cc(COc2ccccc2C(F)(F)F)nn1)c1ccc(O)cc1`, the max response, negative = inhibition was inconclusive: -47.4%. With `CNS(=O)(=O)c1cc(C(=O)OCC(=O)NC2CCCc3ccccc32)ccc1Cl` (stereo not given) the max response, negative = inhibition was inconclusive: -36.3%. `Nc1nonc1-n1nnc(C(=O)N/N=C/c2cc(Br)cs2)c1-c1ccccc1` was tested, and the max response, negative = inhibition was inconclusive: -31.8%. With `CCn1c(CNc2ccc(F)cc2)nnc1SCC(=O)Nc1ccc(OC)cc1OC` the max response, negative = inhibition was inconclusive: -31.2%. `O=[N+]([O-])c1ccccc1S(=O)(=O)N1CCN(Cc2cc3c(cc2O)OCO3)CC1` was tested, and the max response, negative = inhibition was inconclusive: -39.1%. In the case of `Cc1cc(C)c(NC(=O)CN(C)S(=O)(=O)c2ccc3c(c2)n(C)c(=O)c(=O)n3C)c(C)c1`, the max response, negative = inhibition is reported as inactive: 8.67%. In the case of `O=C1Nc2ccc(F)cc2C12Nc1ccccc1-c1nnc(SCc3ccccc3Cl)nc1O2` (stereo not given), the max response, negative = inhibition is reported as inconclusive: -32.2%. For `N#Cc1cccnc1Oc1ccccc1`, the max response, negative = inhibition was inactive: -2.86%. `Cc1ccc(CSc2nc3c(c(N(C)C)n2)CCCC3)cc1` was tested, and the max response, negative = inhibition was inconclusive: -43.1%. In the case of `COCCCN1C(=O)C(CC(=O)NC2CCCC2)CC(C(=O)N2CCOCC2)=C1C` (stereo not given), the max response, negative = inhibition is reported as inactive: 23%. `Cc1ccccc1-n1c(Cc2cccs2)n[nH]c1=S` was tested, and the max response, negative = inhibition was inconclusive: -44.7%. For `O=C(Cn1ccccc1=O)NCc1ccc(F)cc1`, the max response, negative = inhibition was inconclusive: -30.7%. With `COc1ccc(CC2(CO)CCN(C/C=C/c3ccccc3OC)CC2)cc1` the max response, negative = inhibition was active: -92.9%. With `CSc1ccccc1-c1nnc(-c2ccc(C)cc2)o1` the max response, negative = inhibition was inactive: 6.77%. For `Cc1ccc2nc(C(C)(C)C)c(Cc3ccsc3)n2c1`, the max response, negative = inhibition was active: -107%. In the case of `COc1ccccc1N1CCN(C(=O)c2cccc(S(=O)(=O)N3c4ccccc4CC3C)c2)CC1` (stereo not given), the max response, negative = inhibition is reported as inactive: -26.9%. With `COc1ccccc1CN1CCN(C(=O)c2ccncc2)CC1` the max response, negative = inhibition was inconclusive: -42.9%. `COc1ccc(C2C(C#N)=C3NC(=O)c4c(sc5c4CCCCC5)N3C3=C2C(=O)CC(C)(C)C3)cc1` (stereo not given) was tested, and the max response, negative = inhibition was active: -87%. `COc1ccc(OC)c(Nc2nnc(C)c(=O)[nH]2)c1` was tested, and the max response, negative = inhibition was inconclusive: -39.6%. `Cc1oc(-c2ccccc2Cl)nc1CS(=O)(=O)CC(=O)NC1CCCC1` was tested, and the max response, negative = inhibition was inactive: -6.63%. `Cc1c(C)c(C)c(S(=O)(=O)n2[nH]c(=O)c(CCO)c2C)c(C)c1C` was tested, and the max response, negative = inhibition was inactive: 5.98%. For `O=C(O)c1c2c(nc3ccccc13)/C(=C/c1ccccc1[N+](=O)[O-])CCC2`, the max response, negative = inhibition was inconclusive: -37%. For `Cc1nc(CNS(=O)(=O)c2cc(F)ccc2F)cs1`, the max response, negative = inhibition was inconclusive: -32.4%. `CCN(CC)CCNC(=O)c1cn(-c2ccccc2)nc1-c1cccs1` was tested, and the max response, negative = inhibition was inconclusive: -49.4%. For `O=C(c1ccco1)[C@@H]1[C@@H]2C(=O)N(c3ccccc3)C(=O)[C@@H]2C2c3ccccc3C=CN21` (stereo not given in full), the max response, negative = inhibition was inconclusive: -46.9%. For `O=C(NC1CC(=O)N(c2ccc(Cl)cc2)C1)N1CCN(C(=O)c2ccco2)CC1` (stereo not given), the max response, negative = inhibition was inactive: 0.484%. `COc1cccc(C2CC(c3ccccc3)Nc3nc(N)nn32)c1` (stereo not given) was tested, and the max response, negative = inhibition was inconclusive: -30.9%. `Cc1ccc(NC(=O)CCNC(=O)c2ccc(Br)cc2)cc1S(=O)(=O)N1CCCCCC1` was tested, and the max response, negative = inhibition was inactive: -4.64%. With `O=[N+]([O-])c1cccc(/C=N/n2cnnc2)c1O` the max response, negative = inhibition was active: -55%. `COc1ccc(OCCOC(=O)CNS(=O)(=O)c2ccc(SC)c([N+](=O)[O-])c2)cc1` was tested, and the max response, negative = inhibition was inactive: -12.6%. With `CC(=O)c1cc2c(cc1NS(=O)(=O)c1ccccc1)OCO2` the max response, negative = inhibition was inactive: -14.8%. With `Cc1ccccc1CN1CCc2cc([N+](=O)[O-])ccc21` the max response, negative = inhibition was inconclusive: -34%. For `Cc1ccc2oc(/N=C(\N)NC(=O)C(C)(C)C)nc2c1`, the max response, negative = inhibition was active: -52.2%. `c1ccc(CN2CCC(Nc3ncnc4sccc34)CC2)cc1` was tested, and the max response, negative = inhibition was inconclusive: -31.3%. In the case of `O=C(Nc1ccc(N2CCN(C(=O)c3cccs3)CC2)c(Cl)c1)c1ccco1`, the max response, negative = inhibition is reported as inactive: 40.1%. For `O=C(N/N=C/C=C\c1ccccc1[N+](=O)[O-])c1cccs1`, the max response, negative = inhibition was active: -63.9%. `O=C(O)CSc1nnc(-c2ccc(Cl)cc2Cl)n1-c1ccc(Br)cc1` was tested, and the max response, negative = inhibition was inconclusive: -34.1%. In the case of `O=C(CCNS(=O)(=O)c1ccc(Br)cc1)N1CCCCCCC1`, the max response, negative = inhibition is reported as inconclusive: -33.6%. For `O=C(c1ccc(CN2CCOCC2)cc1)N1CCN(Cc2ccccc2)CC1`, the max response, negative = inhibition was inconclusive: -38.8%. With `O=C(NCCN1CCCCC1)Nc1ccc(F)c(Cl)c1` the max response, negative = inhibition was inconclusive: -37.9%. With `Cc1ccc(C)c(NC(=O)COC(=O)CC2c3ccccc3CCN2S(=O)(=O)c2ccc(F)cc2)c1` (stereo not given) the max response, negative = inhibition was inactive: 0%. With `COc1ccc2[nH]c3c(=S)nc[nH]c3c2c1` the max response, negative = inhibition was active: -56%. `O=C(c1ccc2c(Cl)c3c(nc2c1)CCCC3)N1CCC(N2CCCCC2)CC1` was tested, and the max response, negative = inhibition was inactive: 16%. In the case of `CN(C)c1ccc(C(c2ccc(N(C)C)cc2)C(O)c2ccccc2)cc1` (stereo not given), the max response, negative = inhibition is reported as inactive: 7.6%. For `CCCCN1C(=O)c2ccccc2C1C(=O)NC1CCCC1` (stereo not given), the max response, negative = inhibition was inconclusive: -34.7%. For `Cc1nc(CN2CCN(C(=O)c3ccc(C(C)(C)C)cc3)CC2)cs1`, the max response, negative = inhibition was inconclusive: -32.6%. With `COc1ccc(CN2CCCC(N3CCN(c4ccc(OC)cc4)CC3)C2)cc1` (stereo not given) the max response, negative = inhibition was active: -57.7%. In the case of `CCOc1ccc(N(CC(=O)Nc2ccc(C)c(C)c2)S(=O)(=O)c2c(C)noc2C)cc1`, the max response, negative = inhibition is reported as active: -65.7%. For `O=C(NCc1cccnc1)c1ccc(CN2CCc3ccccc3C2)cc1`, the max response, negative = inhibition was active: -75.4%. For `COc1ccc(C2N(c3ccc(OC)cc3)C(=O)C3CCCN32)cc1` (stereo not given), the max response, negative = inhibition was inconclusive: -46.9%. `COc1ccc(C(O)c2nc(-c3ccc(OC)c(OC)c3)cs2)cc1` (stereo not given) was tested, and the max response, negative = inhibition was inactive: 12.3%.
